Data taken from patent US12172996B2, “Methyl {4,6-diamino-2-[5-fluoro-1-(2-fluorobenzyl)-1H-pyrazolo[3,4-b]pyridin-3-yl]pyrimidin-5-yl}carbamate active compound product having improved properties, production and formulation thereof” (Adverio Pharma GmbH, priority 2018, dated 2024).

Assays:
[1] = Dischargeability from the inverting filter centrifuge (filtercake thickness without blockage of discharge path); details: industrial scale
Excerpt: Improved dischargeability from the isolation apparatus: The process according to route 2 prevents the formation of a felt-like filtercake having high tear strength. Both after isolation in the pressure filter and after isolation in the filter centrifugation the filtercake is soft and moldable. This prevents blockage of the discharge path. For example on an industrial scale a blockage of the discharge path from the inverting filter centrifuge after isolation of the material from Route 1 was avoidable only by reducing the filtercake thickness to 8 to 9 mm. By contrast in the isolation of the material from route 2 an average filtercake height of 25 mm was realized without any blocking of the discharge path being observed.

[2] = Area-specific throughput in an inverting filter centrifuge, industrial scale
Method: Improved isolability is measurable on an industrial scale for example via a higher area-specific throughput in an inverting filter centrifuge (example 15).
The isolability of the material produced via route 2 is improved compared to the material produced via route 1. This manifests for example in a higher area-specific throughput in the inverting filter centrifuge. On an industrial scale isolation of the material from route 1 achieved an average area-specific throughput of 1.6 kg/m^2h. The average area-specific throughput of the material from route 2 was 3.0 kg/m^2h and thus nearly double the above (example 15).
Higher area-specific throughput in an inverting filter centrifuge. Industrial scale.

[3] = listed as material from route 1
[4] = listed as material from route 2

**Q.** For `COC(=O)Nc1c(N)nc(-c2nn(Cc3ccccc3F)c3ncc(F)cc23)nc1N` [Route 1, Methyl {4,6-diamino-2-[5-fluoro-1-(2-fluorobenzyl)-1H-pyrazolo[3,4-b]pyridin-3-yl]pyrimidin-5-yl}carbamate], which “Filtercake thickness without blockage of the discharge path” value [1, 3] is on record?
**A.** 8 to 9 mm

**Q.** And the Average area-specific throughput [2]?
**A.** 1.6 kg/m^2h

**Q.** And the Average area-specific throughput [2, 3]?
**A.** 1.6 kg/m^2h

**Q.** Which results are given for `COC(=O)Nc1c(N)nc(-c2nn(Cc3ccccc3F)c3ncc(F)cc23)nc1N` [Route 2, Methyl {4,6-diamino-2-[5-fluoro-1-(2-fluorobenzyl)-1H-pyrazolo[3,4-b]pyridin-3-yl]pyrimidin-5-yl}carbamate]?
**A.** Filtercake thickness without blockage of the discharge path [1, 4]: 25 mm; Average area-specific throughput [2]: 3.0 kg/m^2h; Average area-specific throughput [2, 4]: 3.0 kg/m^2h

Read-outs that look alike come from different tables or passages of the source.
